This is an account of results in paper PMC10937711.

Amino acid sequences for entries named in this document (tags omitted). A change or cut given only in a name is not applied to a line headed by its entry.
UniProt Q9Y2J4: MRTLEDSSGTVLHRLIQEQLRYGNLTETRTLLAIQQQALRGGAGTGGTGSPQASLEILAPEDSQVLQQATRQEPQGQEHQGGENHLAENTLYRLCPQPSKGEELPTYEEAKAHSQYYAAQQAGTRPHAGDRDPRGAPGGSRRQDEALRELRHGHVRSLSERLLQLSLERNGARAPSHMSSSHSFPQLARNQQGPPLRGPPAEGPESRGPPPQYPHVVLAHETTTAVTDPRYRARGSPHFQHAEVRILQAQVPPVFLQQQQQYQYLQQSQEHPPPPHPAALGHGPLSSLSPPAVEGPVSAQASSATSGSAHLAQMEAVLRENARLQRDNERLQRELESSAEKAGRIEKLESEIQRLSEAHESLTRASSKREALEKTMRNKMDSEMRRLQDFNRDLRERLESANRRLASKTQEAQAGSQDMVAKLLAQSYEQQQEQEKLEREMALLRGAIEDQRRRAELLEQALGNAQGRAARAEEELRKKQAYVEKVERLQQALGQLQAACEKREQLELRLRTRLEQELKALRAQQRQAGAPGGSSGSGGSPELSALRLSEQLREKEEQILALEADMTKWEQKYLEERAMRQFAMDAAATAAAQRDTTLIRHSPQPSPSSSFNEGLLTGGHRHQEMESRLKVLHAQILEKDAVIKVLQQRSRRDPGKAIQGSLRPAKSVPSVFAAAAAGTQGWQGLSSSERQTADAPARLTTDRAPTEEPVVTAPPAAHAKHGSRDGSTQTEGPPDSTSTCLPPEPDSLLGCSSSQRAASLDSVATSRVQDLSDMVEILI

No constants are given. Whether binding was seen depends on the method and setting. Binding seen in cells or lysates may run through a third protein.

This assay deals with AMOTL2 D/E4A (human) (UniProt Q9Y2J4). Kind of assay: pull-down; SBP-tagged AMOT (WT, truncations, point mutants) or AMOTL2 constructs as bait, RNF166 as prey; plasmids transfected into 293T cells for 48 h; streptavidin pulldown, immunoblot.

Take “RNF166 (from UniProt Q96A37 1-237) (enzyme)”: the binding result is “no binding”.
